Results from PubChem BioAssay AID192 (DTP/NCI, 2004).
The list does not hold the whole screen: it gathers tests that were run many times, whatever their T/C, doses with no T/C, and many T/C values between a quarter and a half above the control. Further doses and runs are listed elsewhere. T/C gives the treated animals as a percentage of the vehicle group. Some entries give survivors of the animals treated and no T/C: the source files T/C as zero there, which appears to mark a toxic dose or a test without result, not a measured value. Some doses without a T/C left all or most animals alive at the check, yet need not have been tolerated: survival well below the control is almost never listed, so the zero probably covers shortened survival too. Counts of survivors are from the toxicity check (mostly the fifth day) where no day follows; animals may have died later. Schedules are NCI's codes, taken here to give the interval after Q, in days (D) or hours (H), and the number of doses after X. Counts like (3×) give the number of equal values in this list. Some entries were tested several times; the results are listed from low to high. Where survival is the endpoint, this PubChem deposit counts one and a half times the control or more as active, and values a quarter to a half above the control carry no call in these data; other NCI protocols may use other cut-offs. Some T/C values are followed by the survivors on the day toxicity was checked, most often the fifth; without a count, all were alive then.

Tested on: BDF1 mice, B16 melanoma ip, median survival T/C
Test: NCI In Vivo Anticancer Drug Screen. Data for tumor model B16 Melanoma (intraperitoneal) in B6D2F1 (BDF1) mice
Conditions: T/C endpoint: median survival time, higher T/C = longer survival
In short: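 Read-out: survival or tumor size, given as treated/control ratio. Controls received vehicle only; animals bore transplantable tumors.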

[1] = dose: 2.0 mg/kg/injection, schedule: Q01DX009 (ip), vehicle: Klucel (hydroxypropylcellulose) (HPC)
[2] = dose: 4.0 mg/kg/injection, schedule: Q01DX009 (ip), vehicle: saline
[3] = dose: 8.0 mg/kg/injection, schedule: Q01DX009 (ip), vehicle: Klucel (hydroxypropylcellulose) (HPC)
[4] = dose: 8.0 mg/kg/injection, schedule: Q01DX009 (ip), vehicle: saline
[5] = dose: 16.0 mg/kg/injection, schedule: Q01DX009 (ip), vehicle: Klucel (hydroxypropylcellulose) (HPC)
[6] = dose: 30.0 mg/kg/injection, schedule: Q01DX001 (ip), vehicle: Klucel (hydroxypropylcellulose) (HPC)
[7] = dose: 60.0 mg/kg/injection, schedule: Q01DX001 (ip), vehicle: Klucel (hydroxypropylcellulose) (HPC)
[8] = dose: 60.0 mg/kg/injection, schedule: Q01DX001 (ip), vehicle: saline
[9] = dose: 400.0 mg/kg/injection, schedule: Q01DX009 (ip), vehicle: Klucel (hydroxypropylcellulose) (HPC)
[10] = dose: 100.0 mg/kg/injection, schedule: Q01DX009 (ip), vehicle: Klucel (hydroxypropylcellulose) (HPC)
[11] = dose: 200.0 mg/kg/injection, schedule: Q01DX009 (ip), vehicle: Klucel (hydroxypropylcellulose) (HPC)
[12] = dose: 50.0 mg/kg/injection, schedule: Q01DX009 (ip), vehicle: Klucel (hydroxypropylcellulose) (HPC)

In the case of `CC1CCC(NC(=O)N(CCCl)N=O)CC1` (stereo not drawn), the T/C (dose: 1.0 mg/kg/injection, schedule: Q01DX009 (ip), vehicle: Klucel (hydroxypropylcellulose) (HPC)) is reported as 96 (2×), 102 (2×), 107, 111, 117, 124 % of control, the T/C [1] is reported as 100, 101, 105 (5×), 107, 108, 110 (2×), 112, 113 (2×), 117, 118, 118 [5 of 6 alive], 120, 122, 125, 126, 171, 195 % of control and the survivor count [1] is reported as 6 of 6. The T/C (dose: 2.0 mg/kg/injection, schedule: Q01DX009 (ip), vehicle: saline with Tween-80, evaluated on day 45) was 102, 105, 159 % of control, the T/C (dose: 2.0 mg/kg/injection, schedule: Q01DX009 (ip), vehicle: saline with Tween-80, evaluated on day 60) was 98, 100, 110 % of control (2×) and the T/C (dose: 2.0 mg/kg/injection, schedule: Q01DX009 (ip), vehicle: saline) was 94, 97, 102, 110 % of control. The T/C (dose: 4.0 mg/kg/injection, schedule: Q01DX009 (ip), vehicle: Klucel (hydroxypropylcellulose) (HPC)) was 102, 105, 110 (3×), 117 [9 of 10 alive], 120, 122, 123, 125, 125 [5 of 6 alive], 127, 128, 129, 131, 132, 136, 138, 139, 141, 157, 158, 168, 187 % of control, the T/C (dose: 4.0 mg/kg/injection, schedule: Q01DX009 (ip), vehicle: other) was 127 % of control and the T/C (dose: 4.0 mg/kg/injection, schedule: Q01DX009 (ip), vehicle: saline with Tween-80, evaluated on day 45) was 105 [5 of 6 alive], 116, 140 % of control. For the same compound, the T/C (dose: 4.0 mg/kg/injection, schedule: Q01DX009 (ip), vehicle: saline with Tween-80, evaluated on day 60) was 95, 105, 107, 108 % of control, the T/C [2] was 95, 97, 110, 115 % of control and the T/C (dose: 7.5 mg/kg/injection, schedule: Q01DX001 (ip), vehicle: saline) was 130 % of control. The T/C (dose: 7.5 mg/kg/injection, schedule: Q04DX003 (ip), vehicle: other) was 136 % of control, the T/C [3] was 102, 111, 112, 117, 122, 128, 135, 143, 144, 150, 160, 165 (3×), 165 [5 of 6 alive], 167, 174, 194 (2×), 220, 333 % of control and the survivor count [3] was 10 of 10 and 6 of 6. For the same compound, the T/C (dose: 8.0 mg/kg/injection, schedule: Q01DX009 (ip), vehicle: saline with Tween-80, evaluated on day 45) was 105 and 140 % of control (2×), the T/C (dose: 8.0 mg/kg/injection, schedule: Q01DX009 (ip), vehicle: saline with Tween-80, evaluated on day 60) was 126, 133, 153, 178 % of control and the T/C [4] was 121, 126, 139, 194 % of control. For the same compound, the T/C (dose: 14.4 mg/kg/injection, schedule: Q01DX001 (ip), vehicle: distilled water + Tween-80 + alcohol) was 131 % of control, the T/C (dose: 15.0 mg/kg/injection, schedule: Q01DX001 (ip), vehicle: Klucel (hydroxypropylcellulose) (HPC)) was 100 [5 of 6 alive], 105, 106, 107, 110 [4 of 6 alive], 112, 114 (2×), 117 (2×), 118, 128, 150, 151, 168, 173, 177, 202, 210 % of control and the T/C (dose: 15.0 mg/kg/injection, schedule: Q01DX001 (ip), vehicle: saline with Tween-80, evaluated on day 45) was 90, 117 [5 of 6 alive], 119, 135 % of control [5 of 6 alive]. For the same compound, the T/C (dose: 15.0 mg/kg/injection, schedule: Q01DX001 (ip), vehicle: saline with Tween-80, evaluated on day 60) was 97, 98, 100, 155 % of control, the T/C (dose: 15.0 mg/kg/injection, schedule: Q01DX001 (ip), vehicle: saline) was 103, 110 [5 of 6 alive], 121, 152, 167 % of control and the T/C [5] was 92, 94, 103 [4 of 6 alive], 107 [5 of 6 alive], 110, 111, 158, 165, 169, 192 [5 of 6 alive], 220 % of control. The survivor count [5] was 8 of 10, 10 of 10, 6 of 6, the T/C (dose: 16.0 mg/kg/injection, schedule: Q01DX009 (ip), vehicle: saline with Tween-80, evaluated on day 45) was 110 % of control and the T/C (dose: 16.0 mg/kg/injection, schedule: Q01DX009 (ip), vehicle: saline with Tween-80, evaluated on day 60) was 92 and 150 % of control. The survivor count (dose: 16.0 mg/kg/injection, schedule: Q01DX009 (ip), vehicle: saline with Tween-80) was 6 of 6 (2×), the T/C (dose: 16.0 mg/kg/injection, schedule: Q01DX009 (ip), vehicle: saline) was 142 % of control and the T/C [6] was 90, 107 [4 of 6 alive], 117 [5 of 6 alive], 125, 126, 132 (3×), 136, 153, 156, 184 (2×), 193, 194, 195, 218, 333 % of control. The survivor count [6] was 6 of 6, the T/C (dose: 30.0 mg/kg/injection, schedule: Q01DX001 (ip), vehicle: saline with Tween-80, evaluated on day 45) was 120, 125, 133, 155 % of control [5 of 6 alive] and the T/C (dose: 30.0 mg/kg/injection, schedule: Q01DX001 (ip), vehicle: saline with Tween-80, evaluated on day 60) was 113, 116, 136, 194 % of control. For the same compound, the T/C (dose: 30.0 mg/kg/injection, schedule: Q01DX001 (ip), vehicle: saline) was 119, 137, 178, 219, 228 % of control, the survivor count (dose: 32.0 mg/kg/injection, schedule: Q01DX009 (ip), vehicle: Klucel (hydroxypropylcellulose) (HPC)) was 10 of 10 and the survivor count (dose: 40.0 mg/kg/injection, schedule: Q04DX003 (ip), vehicle: other) was 8 of 10. For the same compound, the T/C [7] was 91, 93 [5 of 6 alive], 95, 100, 106, 111, 115 [5 of 6 alive], 125, 131, 147, 173, 257, 285, 333 % of control, the survivor count [7] was 5 of 6 and 6 of 6 and the T/C (dose: 60.0 mg/kg/injection, schedule: Q01DX001 (ip), vehicle: saline with Tween-80, evaluated on day 45) was 95 and 120 % of control. For the same compound, the T/C (dose: 60.0 mg/kg/injection, schedule: Q01DX001 (ip), vehicle: saline with Tween-80, evaluated on day 60) was 169 and 215 % of control, the survivor count (dose: 60.0 mg/kg/injection, schedule: Q01DX001 (ip), vehicle: saline with Tween-80) was 5 of 6 and 6 of 6 and the T/C [8] was 94, 134, 142, 234 % of control. The survivor count [8] was 6 of 6 and the survivor count (dose: 64.0 mg/kg/injection, schedule: Q01DX009 (ip), vehicle: Klucel (hydroxypropylcellulose) (HPC)) was 10 of 10.
With `CCOC(=O)NC1CCC1NC(=O)OCC` (stereo not drawn) the survivor count (dose: 400.0 mg/kg/injection, schedule: Q04DX003 (ip), vehicle: saline with Tween-80) was 5 of 10.
In the case of `CCCCCC(O)C1C(=O)OC(C)C(O)/C=C/C=C/C=C/C=C/C=C(\C)C(O)C(O)C(O)CC(O)CC(O)CC(O)CC(O)CC1O` (stereo not drawn), the T/C (dose: 2.67 mg/kg/injection, schedule: Q01DX009 (ip), vehicle: saline) is reported as 144 % of control, the T/C [2] is reported as 127 % of control and the T/C (dose: 6.0 mg/kg/injection, schedule: Q01DX009 (ip), vehicle: saline) is reported as 134 % of control. For the same compound, the survivor count (dose: 6.25 mg/kg/injection, schedule: Q01DX009 (ip), vehicle: saline) was 6 of 10, the T/C [4] was 135 % of control and the survivor count (dose: 12.5 mg/kg/injection, schedule: Q01DX009 (ip), vehicle: saline) was 0 of 10. For the same compound, the survivor count (dose: 25.0 mg/kg/injection, schedule: Q01DX009 (ip), vehicle: saline) was 0 of 10.
With `O=C1NC(=O)/C(=C/c2ccccc2)N1` the survivor count [9] was 6 of 6.
In the case of `COc1ccccc1NC(=O)Nc1cc(C)ccc1C`, the survivor count [10] is reported as 10 of 10, the survivor count [11] is reported as 10 of 10 and the survivor count [9] is reported as 10 of 10.
`CCNC(C)(C)C(SSSC(c1ccc(Cl)cc1)C(C)(C)NCC)c1ccc(Cl)cc1` (stereo not drawn) was tested, and the survivor count [12] was 10 of 10 and the survivor count [10] was 10 of 10.
In the case of `COc1ccc(C(Nc2ccccc2)C(=O)c2ccccc2)cc1` (stereo not drawn), the survivor count [12] is reported as 7 of 10 and the survivor count [10] is reported as 10 of 10.
For `CN(C)C(=O)C1(c2ccc(Cl)cc2)CCN(CCCC(=O)c2ccc(F)cc2)CC1`, the survivor count [10] was 6 of 10 and the survivor count [11] was 3 of 10.
In the case of `N=C(N)SCc1cccc([N+](=O)[O-])c1`, the survivor count [10] is reported as 7 of 10.
